Reference: PubChem BioAssay AID1259308 (NCATS, 2017)
Purpose: 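Genes whose loss raises luciferase production in HEK293 cells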 (primary screen). Cell system: human HEK293 embryonic kidney cells stably expressing firefly luciferase (HEK-CMV-Luc2-Hygro). Knock-down reagent: single siRNA against human genes, 0.8 pmol siRNA per well. Time to read-out: 72 h. Detection: 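Luciferase light (ONE-Glo) measured on one replicate plate set and viability (CellTiter-Glo) on the other, scaled to a negative control siRNA, with robust z-scores and luciferase per cell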. Direction: total luciferase, z-score and total luciferase, % of control: higher = more reporter protein produced; luciferase per cell, z-score: higher = more reporter output per viable cell; viable cells, % of control: higher = more viable cells. Rule for the call: 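An siRNA counts as active if its total luciferase robust z-score exceeds 3; genes with two or more such siRNAs out of three were retested with fresh siRNAs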. Calls: active = raised luciferase; inactive = no rise.
This is a random part of about 59,000 reagents. About 1,510 of all reagents (2.6%) were called active. 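Calls use total luciferase alone and ignore viability, so some active siRNAs may act by altering cell number.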 Entries without a mark were called inactive. Reagents against one gene are numbered here.

| target | reagent no. | total luciferase, z-score | total luciferase, % of control | luciferase per cell, z-score | viable cells, % of control |
| --- | --- | --- | --- | --- | --- |
| SNRPA1 | 1 | -0.257 | 76.8 | -0.343 | 93.9 |
| SNRPA1 | 2 | 0.357 | 89 | 0.873 | 79 |
| SNRPA1 | 3 | 2.22 | 126 | 3.24 | 60.1 |
| AHCTF1 | 1 | 1.06 | 103 | 0.873 | 91.5 |
| AHCTF1 | 2 | 0.0965 | 83.8 | 0.519 | 81.7 |
| AHCTF1 | 3 | 1.76 | 117 | 1.61 | 85.6 |
| SLC24A5 | 1 | 0.041 | 82.7 | -0.286 | 99.6 |
| SLC24A5 | 2 | -0.0883 | 80.1 | -0.262 | 95.9 |
| SLC24A5 | 3 | 1.05 | 103 | 0.198 | 109 |
| TMEM192 | 1 | -1.55 | 51 | -2.01 | 96.7 |
| TMEM192 | 2 | 1.7 | 116 | 1.31 | 91.4 |
| TMEM192 | 3 | -1.3 | 56.1 | -0.905 | 79.6 |
| DYNC2I1 | 1 | 0.47 | 91.2 | 0.23 | 95.9 |
| DYNC2I1 | 2 | 0.256 | 87 | 0.275 | 90.4 |
| DYNC2I1 | 3 | -1.39 | 54.2 | -0.634 | 71.6 |
| FAM124A | 1 | -0.306 | 75.8 | -0.295 | 91.5 |
| FAM124A | 2 | -0.3 | 75.9 | -0.0751 | 86.5 |
| FAM124A | 3 | 0.489 | 91.6 | 0.0174 | 102 |
| SP1 | 1 | -1.36 | 54.9 | -2.07 | 106 |
| SP1 | 2 | -1.02 | 61.5 | -1.12 | 92.3 |
| SP1 | 3 | -0.441 | 73.1 | -1.02 | 107 |
| SLC50A1 | 1 | -1.39 | 54.2 | 0.00863 | 60.4 |
| SLC50A1 | 2 | -1.23 | 57.5 | -1.19 | 87.9 |
| SLC50A1 | 3 | -0.633 | 69.3 | -0.19 | 81.4 |
| JMJD1C | 1 | -0.479 | 72.4 | -0.0437 | 81.8 |
| JMJD1C | 2 | -0.0701 | 80.5 | -0.0848 | 92 |
| JMJD1C | 3 | 0.0977 | 83.8 | 0.354 | 85.3 |
| MAP3K9 | 1 | 0.714 | 96.1 | 0.491 | 94.4 |
| MAP3K9 | 2 | 1.36 | 109 | 1.68 | 78.3 |
| MAP3K9 | 3 | 2.85 | 139 | 2.04 | 90.5 |
| C6orf132 | 1 | -0.477 | 72.4 | -0.315 | 87.9 |
| C6orf132 | 2 | -0.0925 | 80 | -0.39 | 99.1 |
| C6orf132 | 3 | 2.88 | 139 | 2.48 | 81 |
| C6orf132 | 4 | -0.0881 | 80.1 | 0.0655 | 88 |
| C6orf132 | 5 | -0.507 | 71.8 | 0.264 | 74.9 |
| C6orf132 | 6 | -1.75 | 47.1 | 0.189 | 50.1 |
| SS18L2 | 1 | 1.44 | 111 | 0.861 | 98.5 |
| SS18L2 | 2 | 0.526 | 92.3 | 1.5 | 69.6 |
| SS18L2 | 3 | 1.5 | 112 | 1.07 | 94.2 |
| TADA1 | 1 | 0.654 | 94.9 | 0.198 | 101 |
| TADA1 | 2 | 1.33 | 108 | 1.18 | 88.7 |
| TADA1 | 3 | 0.764 | 97.1 | 1.58 | 71.5 |
| PLOD2 | 1 | 0.283 | 87.5 | -0.0841 | 100 |
| PLOD2 | 2 | 2.06 | 123 | 2.33 | 74.3 |
| PLOD2 | 3 | -0.842 | 65.1 | -0.639 | 86.1 |
| PXK | 1 | 0.141 | 84.7 | -0.1 | 97.2 |
| PXK | 2 | 1.9 | 120 | 2.15 | 75.9 |
| PXK | 3 | 2.45 | 131 | 2.69 | 72 |
| NABP1 | 1 | -0.603 | 69.9 | -0.976 | 101 |
| NABP1 | 2 | 0.944 | 101 | 0.414 | 101 |
| NABP1 | 3 | -0.237 | 77.2 | -0.323 | 93.9 |
| PPP1CA | 1 | -0.233 | 77.3 | 0.375 | 78.2 |
| PPP1CA | 2 | 2.98 | 141 | 1.87 | 96.5 |
| PPP1CA | 3 | -1.68 | 48.4 | -2.12 | 94.5 |
| SNW1 | 1 | -1.03 | 61.4 | 0.48 | 60.5 |
| SNW1 | 2 | -0.263 | 76.7 | 0.422 | 76.7 |
| SNW1 | 3 | 0.776 | 97.3 | 1.57 | 72 |
| ERCC2 | 1 | 1.15 | 105 | 1.27 | 83.9 |
| ERCC2 | 2 | 0.23 | 86.5 | -0.35 | 106 |
| ERCC2 | 3 | -0.0646 | 80.6 | -0.134 | 93.3 |
| CIPC | 1 | 1.84 | 118 | 1.39 | 91.9 |
| CIPC | 2 | -0.842 | 65.1 | -1.07 | 96.5 |
| CIPC | 3 | -0.435 | 73.2 | -0.351 | 89.8 |
| PROZ | 1 | 1.48 | 111 | 0.781 | 101 |
| PROZ | 2 | 1.07 | 103 | 0.682 | 96.4 |
| PROZ | 3 | 2.06 | 123 | 1.72 | 87.2 |
| CD53 | 1 | 0.658 | 95 | 0.259 | 99.1 |
| CD53 | 2 | 0.827 | 98.3 | 0.246 | 103 |
| CD53 | 3 | -0.4 | 73.9 | 0.403 | 74.3 |
| HMGN3 | 1 | 0.186 | 85.6 | 0.244 | 89.7 |
| HMGN3 | 2 | -1.2 | 58 | -0.18 | 68 |
| HMGN3 | 3 | 0.183 | 85.5 | -0.491 | 109 |
| UMPS | 1 | -0.283 | 76.3 | -0.167 | 89 |
| UMPS | 2 | -0.719 | 67.6 | -0.319 | 82.1 |
| UMPS | 3 | 2.52 | 132 | 0.632 | 125 |

Sorted by “viable cells, % of control” (descending): 8 of the entries above.
| target | reagent no. | total luciferase, z-score | total luciferase, % of control | luciferase per cell, z-score | viable cells, % of control |
| --- | --- | --- | --- | --- | --- |
| SLC24A5 | 3 | 1.05 | 103 | 0.198 | 109 |
| SLC24A5 | 1 | 0.041 | 82.7 | -0.286 | 99.6 |
| TMEM192 | 1 | -1.55 | 51 | -2.01 | 96.7 |
| SLC24A5 | 2 | -0.0883 | 80.1 | -0.262 | 95.9 |
| AHCTF1 | 1 | 1.06 | 103 | 0.873 | 91.5 |
| TMEM192 | 2 | 1.7 | 116 | 1.31 | 91.4 |
| AHCTF1 | 3 | 1.76 | 117 | 1.61 | 85.6 |
| AHCTF1 | 2 | 0.0965 | 83.8 | 0.519 | 81.7 |
